This is an account of results in paper PMC5312319.

This assay has as its target HA-AKT. The assay can be described thus: co-IP; HA-AKT and Flag-HDAC10 overexpressed in 293T cells; IP with anti-HA beads, blots with anti-AKT and anti-HDAC10; with or without treatment of the cells with Bufexamac (interaction reduced).

No constants are given. Whether binding was seen depends on the method and setting. Binding seen in cells or lysates may run through a third protein. Binding calls can cover weak binding; strength is not graded here. Where a sequence is shown, tags or fusion partners need not be part of it.

B1: Flag-HDAC10 (protein, UniProt Q969S8 1-669)
chain: MGTALVYHEDMTATRLLWDDPECEIERPERLTAALDRLRQRGLEQRCLRLSAREASEEELGLVHSPEYVSLVRETQVLGKEELQALSGQFDAIYFHPSTFHCARLAAGAGLQLVDAVLTGAVQNGLALVRPPGHHGQRAAANGFCVFNNVAIAAAHAKQKHGLHRILVVDWDVHHGQGIQYLFEDDPSVLYFSWHRYEHGRFWPFLRESDADAVGRGQGLGFTVNLPWNQVGMGNADYVAAFLHLLLPLAFEFDPELVLVSAGFDSAIGDPEGQMQATPECFAHLTQLLQVLAGGRVCAVLEGGYHLESLAESVCMTVQTLLGDPAPPLSGPMAPCQSALESIQSARAAQAPHWKSLQQQDVTAVPMSPSSHSPEGRPPPLLPGGPVCKAAASAPSSLLDQPCLCPAPSVRTAVALTTPDITLVLPPDVIQQEASALREETEAWARPHESLAREEALTALGKLLYLLDGMLDGQVNSGIAATPASAAAATLDVAVRRGLSHGAQRLLCVALGQLDRPPDLAHDGRSLWLNIRGKEAAALSMFHVSTPLPVMTGGFLSCILGLVLPLAYGFQPDLVLVALGPGHGLQGPHAALLAAMLRGLAGGRVLALLEENSTPQLAGILARVLNGEAPPSLGPSSVASPEDVQALMYLRGQLEPQWKMLQCHPHLVA
As for B1, the binding result is on record as “binds”.
